In patent US8058272B2, “Organic compounds” (Novartis AG, priority 2006, dated 2011):
Some results were stated once for a whole list of compounds, not compound by compound. Some compounds share one range, which may span the group rather than tell each member.

Amino acid sequences for entries named in this document (tags omitted). Residues count along the entry.
UniProt P98170, 241-356: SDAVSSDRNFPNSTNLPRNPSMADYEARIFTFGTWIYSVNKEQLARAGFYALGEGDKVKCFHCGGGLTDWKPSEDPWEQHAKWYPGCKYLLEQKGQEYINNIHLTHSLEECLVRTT

What follows are compounds tested against T1, GST-BIR3 fusion protein (Homo sapiens, UniProt P98170) (assay: TR-FRET competition assay of biotinylated Smac binding to GST-BIR3). Details: competition with Biotin-Smac for GST-BIR3, Eu-Streptavidin donor, anti-GST-APC acceptor.
T1 construct: fused on or other part: GST tag, detected by anti-GST-APC

IC50 (concentration of compound inhibiting 50% of Smac binding), 1 to 10000 nM:
CNC(C)C(=O)Nc1ccc(-c2cccc(C(=O)NCCO)c2)n(Cc2cncc(C(=O)c3ccc(F)cc3)c2)c1=O (stereo in doubt) [Example 59, 3-[1-[5-(4-Fluoro-benzoyl)-pyridin-3-ylmethyl]-5-((S)-2-methylamino-propionylamino)-6-oxo-1,6-dihydro-pyridin-2-yl]-N-(2-hydroxy-ethyl)-benzamide]
CCc1ccc(-c2ccc(NC(=O)C(C)NC)c(=O)n2Cc2cncc(C(=O)c3ccc(F)cc3)c2)cc1 (stereo in doubt) [Example 62, (S)-N-{6-(4-Ethyl-phenyl)-1-[5-(4-fluoro-benzoyl)-pyridin-3-ylmethyl]-2-oxo-1,2-dihydro-pyridin-3-yl}-2-methylamino-propionamide]
CNC(C)C(=O)Nc1ccc(-c2cccc(CO)c2)n(Cc2cncc(C(=O)c3ccc(F)cc3)c2)c1=O (stereo in doubt) [Example 48, (S)-N-[1-[5-(4-Fluoro-benzoyl)-pyridin-3-ylmethyl]-6-(3-hydroxymethyl-phenyl)-2-oxo-1,2-dihydro-pyridin-3-yl]-2-methylamino-propionamide]
CNC(=O)c1cccc(-c2ccc(NC(=O)C(C)NC)c(=O)n2Cc2cccc(C(=O)c3ccc(F)cc3)c2)c1 (stereo in doubt) [Example 56, 3-[1-[3-(4-Fluoro-benzoyl)-benzyl]-5-((S)-2-methylamino-propionylamino)-6-oxo-1,6-dihydro-pyridin-2-yl]-N-methyl-benzamide]
CCNC(=O)c1cccc(-c2ccc(NC(=O)[C@H](C)NC)c(=O)n2Cc2cncc(-n3ccc4cc(F)ccc43)c2)c1 [Example 73, N-Ethyl-3-[1-[5-(5-fluoro-indol-1-yl)-pyridin-3-ylmethyl]-5-((S)-2-methylamino-propionylamino)-6-oxo-1,6-dihydro-pyridin-2-yl]-benzamide]
CNC(C)C(=O)Nc1ccc(-c2ccncc2)n(Cc2cncc(C(=O)c3ccc(F)cc3)c2)c1=O (stereo in doubt) [Example 54, (S)-N-{1-[5-(4-Fluoro-benzoyl)-pyridin-3-ylmethyl]-6-oxo-1,6-dihydro-[2,4′]bipyridinyl-5-yl}-2-methylamino-propionamide]
CNC(C)C(=O)Nc1ccc(-c2cccc(CCO)c2)n(Cc2cncc(C(=O)c3ccc(F)cc3)c2)c1=O (stereo in doubt) [Example 30, (S)-N-{1-[5-(4-Fluoro-benzoyl)-pyridin-3-ylmethyl]-6-[3-(2-hydroxy-ethyl)-phenyl]-2-oxo-1,2-dihydro-pyridin-3-yl}-2-methylamino-propionamide]
CN[C@@H](C)C(=O)Nc1ccc(-c2cccc(C#N)c2)n(Cc2cncc(-n3ccc4cc(F)ccc43)c2)c1=O [Example 71, (S)-N-{6-(3-Cyano-phenyl)-1-[5-(5-fluoro-indol-1-yl)-pyridin-3-ylmethyl]-2-oxo-1,2-dihydro-pyridin-3-yl}-2-methylamino-propionamide]
CNC(C)C(=O)Nc1ccc(C2=CCCCC2)n(Cc2cncc(C(=O)c3ccc(F)cc3)c2)c1=O (stereo in doubt) [Example 33, (S)-N-{6-Cyclohex-1-enyl-1-[5-(4-fluoro-benzoyl)-pyridin-3-ylmethyl]-2-oxo-1,2-dihydro-pyridin-3-yl}-2-methylamino-propionamide]
CNC(C)C(=O)Nc1ccc(-c2cccc(C(=O)NC(C)C)c2)n(Cc2cncc(-n3ccc4cc(F)ccc43)c2)c1=O (stereo in doubt) [Example 25, 3-[1-[5-(5-Fluoro-indol-1-yl)-pyridin-3-ylmethyl]-5-((S)-2-methylamino-propionylamino)-6-oxo-1,6-dihydro-pyridin-2-yl]-N-isopropyl-benzamide]
CNC(C)C(=O)Nc1ccc(-c2cccc(F)c2)n(Cc2cncc(C(=O)c3ccc(F)cc3)c2)c1=O (stereo in doubt) [Example 67, (S)-N-[1-[5-(4-Fluoro-benzoyl)-pyridin-3-ylmethyl]-6-(3-fluoro-phenyl)-2-oxo-1,2-dihydro-pyridin-3-yl]-2-methylamino-propionamide]
CNC(C)C(=O)Nc1ccc(-c2cccc(NC(C)=O)c2)n(Cc2cncc(C(=O)c3ccc(F)cc3)c2)c1=O (stereo in doubt) [Example 45, (S)-N-{6-(3-Acetylamino-phenyl)-1-[5-(4-fluoro-benzoyl)-pyridin-3-ylmethyl]-2-oxo-1,2-dihydro-pyridin-3-yl}-2-methylamino-propionamide]
CNC(C)C(=O)Nc1ccc(-c2ccc3c(c2)OCO3)n(Cc2cncc(C(=O)c3ccc(F)cc3)c2)c1=O (stereo in doubt) [Example 23, (S)-N-{6-Benzo[1,3]dioxol-5-yl-1-[5-(4-fluoro-benzoyl)-pyridin-3-ylmethyl]-2-oxo-1,2-dihydro-pyridin-3-yl}-2-methylamino-propionamide]
CNC(C)C(=O)Nc1ccc(-c2cccc([N+](=O)[O-])c2)n(Cc2cncc(C(=O)c3ccc(F)cc3)c2)c1=O (stereo in doubt) [Example 36, (S)-N-[1-[5-(4-Fluoro-benzoyl)-pyridin-3-ylmethyl]-6-(3-nitro-phenyl)-2-oxo-1,2-dihydro-pyridin-3-yl]-2-methylamino-propionamide]
CNC(C)C(=O)Nc1ccc(-c2ccc(F)cc2)n(Cc2cncc(C(=O)c3ccc(F)cc3)c2)c1=O (stereo in doubt) [Example 63, (S)-N-[1-[5-(4-Fluoro-benzoyl)-pyridin-3-ylmethyl]-6-(4-fluoro-phenyl)-2-oxo-1,2-dihydro-pyridin-3-yl]-2-methylamino-propionamide]
CN[C@@H](C)C(=O)Nc1ccc(-c2cccc(C(=O)N(C)C)c2)n(Cc2cncc(-n3ccc4cc(F)ccc43)c2)c1=O [Example 72, 3-[1-[5-(5-Fluoro-indol-1-yl)-pyridin-3-ylmethyl]-5-((S)-2-methylamino-propionylamino)-6-oxo-1,6-dihydro-pyridin-2-yl]-N,N-dimethyl-benzamide]
CNC(C)C(=O)Nc1ccc(-c2cccc(C#N)c2)n(Cc2cc(C(=O)c3ccc(F)cc3)cc(N3CCOCC3)c2)c1=O (stereo in doubt) [Example 29, (S)-N-{6-(3-Cyano-phenyl)-1-[3-(4-fluoro-benzoyl)-5-morpholin-4-yl-benzyl]-2-oxo-1,2-dihydro-pyridin-3-yl}-2-methylamino-propionamide]
CNC(C)C(=O)Nc1ccc(-c2cccc(C#N)c2)n(Cc2cc(C(=O)c3ccc(F)cc3)cc(-c3cccc(C#N)c3)c2)c1=O (stereo in doubt) [Example 68, (S)-N-[1-[3′-Cyano-5-(4-fluoro-benzoyl)-biphenyl-3-ylmethyl]-6-(3-cyano-phenyl)-2-oxo-1,2-dihydro-pyridin-3-yl]-2-methylamino-propionamide]
CNC(C)C(=O)Nc1ccc(-c2cncc(Br)c2)n(Cc2cncc(C(=O)c3ccc(F)cc3)c2)c1=O (stereo in doubt) [Example 41, (S)-N-{5′-Bromo-1-[5-(4-fluoro-benzoyl)-pyridin-3-ylmethyl]-6-oxo-1,6-dihydro-[2,3′]bipyridinyl-5-yl}-2-methylamino-propionamide]
CNC(C)C(=O)Nc1ccc(-c2cccc(C(=O)NCC(C)C)c2)n(Cc2cncc(-n3ccc4cc(F)ccc43)c2)c1=O (stereo in doubt) [Example 69, 3-[1-[5-(5-Fluoro-indol-1-yl)-pyridin-3-ylmethyl]-5-((S)-2-methylamino-propionylamino)-6-oxo-1,6-dihydro-pyridin-2-yl]-N-isobutyl-benzamide]
CNC(C)C(=O)Nc1ccc(-c2ccccc2F)n(Cc2cncc(C(=O)c3ccc(F)cc3)c2)c1=O (stereo in doubt) [Example 46, (S)-N-[1-(5-(4-Fluoro-benzoyl)-pyridin-3-ylmethyl]-6-(2-fluoro-phenyl)-2-oxo-1,2-dihydro-pyridin-3-yl]-2-methylamino-propionamide]
CNC(=O)c1ccc(-c2ccc(NC(=O)C(C)NC)c(=O)n2Cc2cncc(C(=O)c3ccc(F)cc3)c2)cc1 (stereo in doubt) [Example 40, 4-[1-[5-(4-Fluoro-benzoyl)-pyridin-3-ylmethyl]-5-((S)-2-methylamino-propionylamino)-6-oxo-1,6-dihydro-pyridin-2-yl]-N-methyl-benzamide]
CNC(=O)c1cccc(-c2ccc(NC(=O)C(C)NC)c(=O)n2Cc2cncc(C(=O)c3ccc(F)cc3)c2)c1 (stereo in doubt) [Example 52, 3-[1-[5-(4-Fluoro-benzoyl)-pyridin-3-ylmethyl]-5-((S)-2-methylamino-propionylamino)-6-oxo-1,6-dihydro-pyridin-2-yl]-N-methyl-benzamide]
CNC(C)C(=O)Nc1ccc(-c2cnccc2OC)n(Cc2cncc(C(=O)c3ccc(F)cc3)c2)c1=O (stereo in doubt) [Example 57, (S)-N-{1-[5-(4-Fluoro-benzoyl)-pyridin-3-ylmethyl]-4′-methoxy-6-oxo-1,6-dihydro-[2,3′]bipyridinyl-5-yl}-2-methylamino-propionamide]
